Reference: patent US11897859B1, “Coumarin compounds as antibacterial agents” (KING FAISAL UNIVERSITY, priority 2023, dated 2024)
≈ marks a conversion by molar mass, not a printed value.

What was measured:
Assay in all cases: In vitro antibacterial activity (CLSI M07-A10 dilution), MIC
Type in all cases: cell-based
[1] = system: Staphylococcus epidermidis
[2] = system: Staphylococcus aureus ATCC BAA-1556 (MERSA resistant); conditions: ATCCBAA1556
[3] = system: Pseudomonas aeruginosa MTCC 741; conditions: MTCC741
[4] = system: Enterococcus faecium ATCC 35667; conditions: ATCC35667
[5] = system: Enterococcus faecium ATCC 51559 (VRE resistant)
[6] = system: Escherichia coli MTCC 443; conditions: MTCC443
[7] = system: Staphylococcus aureus ATCC 29213; conditions: ATCC29213
[8] = system: Bacillus subtilis MTCC 441; conditions: MTCC441

CN[C@H](CC(C)C)C(=O)N[C@H]1C(=O)N[C@@H](CC(N)=O)C(=O)N[C@H]2C(=O)N[C@H]3C(=O)N[C@H](C(=O)N[C@H](C(=O)O)c4cc(O)cc(O)c4-c4cc3ccc4O)[C@H](O)c3ccc(c(Cl)c3)Oc3cc2cc(c3O[C@@H]2O[C@H](CO)[C@@H](O)[C@H](O)[C@H]2O[C@H]2C[C@](C)(N)[C@H](O)[C@H](C)O2)Oc2ccc(cc2Cl)[C@H]1O [Vancomycin, reference compound]
MIC [1]: 1 µg/mL (≈ 0.69 µM)
MIC [2]: 1 µg/mL (≈ 0.69 µM)
MIC [3]: > 128 µg/mL
MIC [4]: 0.5 µg/mL (≈ 0.345 µM)
MIC [5]: > 128 µg/mL
MIC [6]: > 128 µg/mL
MIC [7]: 1 µg/mL (≈ 0.69 µM)
MIC [8]: 0.5 µg/mL (≈ 0.345 µM)
